Data taken from the supplement of paper PMC11732987, “Enantioselective OTUD7B fragment discovery through chemoproteomics screening and high-throughput optimisation” (Communications Chemistry, 2025).
The other results are listed elsewhere or left out. The data scatter; read single values as rough.

Sequences of proteins named here, by UniProt entry; tags and fusion partners are left off. A change or cut given only in a name is not applied to a line headed by its entry. Residues count along the entry.
UniProt Q08J23, whole entry, looked up: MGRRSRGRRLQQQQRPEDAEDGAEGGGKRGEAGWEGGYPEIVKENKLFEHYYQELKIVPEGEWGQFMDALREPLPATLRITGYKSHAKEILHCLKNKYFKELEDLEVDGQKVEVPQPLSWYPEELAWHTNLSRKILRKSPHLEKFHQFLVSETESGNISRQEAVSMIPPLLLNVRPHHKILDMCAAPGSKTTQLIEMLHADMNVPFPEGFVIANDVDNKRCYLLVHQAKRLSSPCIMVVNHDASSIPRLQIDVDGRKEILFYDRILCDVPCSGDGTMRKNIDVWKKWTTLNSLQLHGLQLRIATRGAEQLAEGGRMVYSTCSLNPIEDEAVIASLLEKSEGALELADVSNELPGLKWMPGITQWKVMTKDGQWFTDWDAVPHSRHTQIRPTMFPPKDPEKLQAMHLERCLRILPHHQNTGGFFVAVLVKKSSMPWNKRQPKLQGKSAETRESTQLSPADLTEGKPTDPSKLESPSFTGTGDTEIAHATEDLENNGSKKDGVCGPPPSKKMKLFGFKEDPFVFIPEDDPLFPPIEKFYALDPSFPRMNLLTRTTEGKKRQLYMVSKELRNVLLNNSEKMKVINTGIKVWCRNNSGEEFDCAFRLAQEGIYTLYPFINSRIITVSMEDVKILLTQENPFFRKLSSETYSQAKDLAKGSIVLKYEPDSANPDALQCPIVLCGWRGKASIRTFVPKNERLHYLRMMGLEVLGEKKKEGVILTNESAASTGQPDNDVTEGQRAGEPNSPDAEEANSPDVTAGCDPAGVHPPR
UniProt Q08J23, 738-767: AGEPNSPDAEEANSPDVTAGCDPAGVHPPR
UniProt Q9UBD5: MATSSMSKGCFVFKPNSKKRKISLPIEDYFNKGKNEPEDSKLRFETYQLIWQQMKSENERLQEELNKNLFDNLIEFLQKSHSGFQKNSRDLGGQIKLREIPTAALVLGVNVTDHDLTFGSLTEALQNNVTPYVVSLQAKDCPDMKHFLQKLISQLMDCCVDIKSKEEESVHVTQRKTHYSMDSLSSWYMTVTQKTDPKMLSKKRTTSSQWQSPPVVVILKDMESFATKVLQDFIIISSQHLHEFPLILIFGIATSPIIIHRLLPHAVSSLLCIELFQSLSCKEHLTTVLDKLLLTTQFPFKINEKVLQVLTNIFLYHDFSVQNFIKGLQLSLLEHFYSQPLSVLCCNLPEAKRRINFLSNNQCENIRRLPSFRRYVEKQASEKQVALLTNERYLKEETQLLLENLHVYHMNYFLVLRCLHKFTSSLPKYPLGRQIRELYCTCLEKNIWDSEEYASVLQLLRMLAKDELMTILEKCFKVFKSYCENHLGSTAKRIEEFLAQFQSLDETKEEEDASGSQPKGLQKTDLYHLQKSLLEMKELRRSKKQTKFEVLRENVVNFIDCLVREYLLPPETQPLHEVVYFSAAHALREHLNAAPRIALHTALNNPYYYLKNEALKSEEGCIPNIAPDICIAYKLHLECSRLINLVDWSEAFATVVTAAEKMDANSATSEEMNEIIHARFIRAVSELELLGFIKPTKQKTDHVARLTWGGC
UniProt O43847: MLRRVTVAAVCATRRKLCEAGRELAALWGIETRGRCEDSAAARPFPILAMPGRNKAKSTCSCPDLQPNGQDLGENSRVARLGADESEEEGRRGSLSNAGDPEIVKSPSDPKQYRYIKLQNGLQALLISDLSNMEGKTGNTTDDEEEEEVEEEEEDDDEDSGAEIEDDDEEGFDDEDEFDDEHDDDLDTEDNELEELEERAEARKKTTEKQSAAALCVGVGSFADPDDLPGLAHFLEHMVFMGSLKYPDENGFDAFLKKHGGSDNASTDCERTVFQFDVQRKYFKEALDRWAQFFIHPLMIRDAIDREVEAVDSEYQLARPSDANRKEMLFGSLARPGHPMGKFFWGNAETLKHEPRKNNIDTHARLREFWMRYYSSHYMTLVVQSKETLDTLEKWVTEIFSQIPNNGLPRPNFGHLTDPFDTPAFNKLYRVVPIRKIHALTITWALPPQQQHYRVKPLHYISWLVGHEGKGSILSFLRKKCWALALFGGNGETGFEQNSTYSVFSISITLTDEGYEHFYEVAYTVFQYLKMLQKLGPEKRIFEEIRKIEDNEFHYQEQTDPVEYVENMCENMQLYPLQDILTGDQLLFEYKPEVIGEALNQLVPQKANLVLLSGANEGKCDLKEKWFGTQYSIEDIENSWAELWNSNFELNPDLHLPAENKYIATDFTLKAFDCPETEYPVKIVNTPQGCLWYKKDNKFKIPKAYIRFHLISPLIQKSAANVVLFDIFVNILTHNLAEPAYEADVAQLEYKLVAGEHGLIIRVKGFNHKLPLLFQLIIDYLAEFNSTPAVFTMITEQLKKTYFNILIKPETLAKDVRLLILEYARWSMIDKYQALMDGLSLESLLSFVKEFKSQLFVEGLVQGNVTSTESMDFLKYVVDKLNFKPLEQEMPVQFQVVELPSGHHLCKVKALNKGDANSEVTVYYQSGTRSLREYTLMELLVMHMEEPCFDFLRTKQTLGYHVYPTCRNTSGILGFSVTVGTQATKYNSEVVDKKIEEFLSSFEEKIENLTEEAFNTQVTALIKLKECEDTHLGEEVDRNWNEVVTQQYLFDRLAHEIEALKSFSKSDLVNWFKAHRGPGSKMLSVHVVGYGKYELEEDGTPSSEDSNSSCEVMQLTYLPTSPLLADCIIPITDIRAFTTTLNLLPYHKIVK
UniProt O60502: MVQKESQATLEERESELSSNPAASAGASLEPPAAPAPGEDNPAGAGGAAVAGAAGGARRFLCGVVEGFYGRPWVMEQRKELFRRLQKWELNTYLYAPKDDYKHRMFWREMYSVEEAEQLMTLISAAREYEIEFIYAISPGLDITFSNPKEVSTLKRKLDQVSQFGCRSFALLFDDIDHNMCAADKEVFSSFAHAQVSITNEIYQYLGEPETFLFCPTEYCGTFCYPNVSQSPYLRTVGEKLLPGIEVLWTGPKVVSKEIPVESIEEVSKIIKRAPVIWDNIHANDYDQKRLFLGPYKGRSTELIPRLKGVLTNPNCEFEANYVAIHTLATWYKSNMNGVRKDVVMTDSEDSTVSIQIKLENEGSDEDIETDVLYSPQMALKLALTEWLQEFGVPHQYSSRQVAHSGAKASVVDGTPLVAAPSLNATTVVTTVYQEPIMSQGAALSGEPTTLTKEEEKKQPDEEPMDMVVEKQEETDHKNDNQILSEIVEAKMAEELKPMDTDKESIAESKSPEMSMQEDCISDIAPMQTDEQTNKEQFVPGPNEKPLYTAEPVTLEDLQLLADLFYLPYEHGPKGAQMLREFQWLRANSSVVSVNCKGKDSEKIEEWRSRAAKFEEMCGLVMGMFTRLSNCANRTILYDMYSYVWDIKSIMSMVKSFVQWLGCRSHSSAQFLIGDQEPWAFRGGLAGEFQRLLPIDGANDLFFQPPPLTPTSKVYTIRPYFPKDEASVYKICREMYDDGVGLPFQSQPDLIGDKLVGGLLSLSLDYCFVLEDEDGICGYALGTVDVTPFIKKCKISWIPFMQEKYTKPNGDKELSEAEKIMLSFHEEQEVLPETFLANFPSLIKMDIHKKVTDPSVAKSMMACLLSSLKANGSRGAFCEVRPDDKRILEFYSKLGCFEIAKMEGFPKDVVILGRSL
UniProt Q8N1F7: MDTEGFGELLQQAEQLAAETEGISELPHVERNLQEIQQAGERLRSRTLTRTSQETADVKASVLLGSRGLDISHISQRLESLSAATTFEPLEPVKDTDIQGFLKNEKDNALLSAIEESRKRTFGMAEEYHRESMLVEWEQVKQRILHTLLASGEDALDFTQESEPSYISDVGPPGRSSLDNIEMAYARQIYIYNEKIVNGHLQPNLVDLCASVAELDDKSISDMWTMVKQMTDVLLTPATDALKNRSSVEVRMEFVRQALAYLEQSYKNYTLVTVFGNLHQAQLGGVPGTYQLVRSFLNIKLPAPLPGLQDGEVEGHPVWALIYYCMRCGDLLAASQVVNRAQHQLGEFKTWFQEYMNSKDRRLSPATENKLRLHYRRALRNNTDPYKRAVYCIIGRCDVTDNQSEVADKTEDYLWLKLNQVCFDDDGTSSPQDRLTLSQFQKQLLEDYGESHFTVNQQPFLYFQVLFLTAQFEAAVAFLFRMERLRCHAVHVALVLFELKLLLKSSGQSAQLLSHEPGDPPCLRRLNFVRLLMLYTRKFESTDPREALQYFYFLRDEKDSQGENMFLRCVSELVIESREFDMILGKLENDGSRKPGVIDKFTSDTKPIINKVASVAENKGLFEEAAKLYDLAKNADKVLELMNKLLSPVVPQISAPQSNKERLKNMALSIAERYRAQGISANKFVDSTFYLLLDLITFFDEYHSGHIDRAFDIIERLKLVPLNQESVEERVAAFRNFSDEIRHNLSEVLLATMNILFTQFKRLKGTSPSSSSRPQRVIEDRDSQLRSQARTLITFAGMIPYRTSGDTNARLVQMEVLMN
UniProt Q01968: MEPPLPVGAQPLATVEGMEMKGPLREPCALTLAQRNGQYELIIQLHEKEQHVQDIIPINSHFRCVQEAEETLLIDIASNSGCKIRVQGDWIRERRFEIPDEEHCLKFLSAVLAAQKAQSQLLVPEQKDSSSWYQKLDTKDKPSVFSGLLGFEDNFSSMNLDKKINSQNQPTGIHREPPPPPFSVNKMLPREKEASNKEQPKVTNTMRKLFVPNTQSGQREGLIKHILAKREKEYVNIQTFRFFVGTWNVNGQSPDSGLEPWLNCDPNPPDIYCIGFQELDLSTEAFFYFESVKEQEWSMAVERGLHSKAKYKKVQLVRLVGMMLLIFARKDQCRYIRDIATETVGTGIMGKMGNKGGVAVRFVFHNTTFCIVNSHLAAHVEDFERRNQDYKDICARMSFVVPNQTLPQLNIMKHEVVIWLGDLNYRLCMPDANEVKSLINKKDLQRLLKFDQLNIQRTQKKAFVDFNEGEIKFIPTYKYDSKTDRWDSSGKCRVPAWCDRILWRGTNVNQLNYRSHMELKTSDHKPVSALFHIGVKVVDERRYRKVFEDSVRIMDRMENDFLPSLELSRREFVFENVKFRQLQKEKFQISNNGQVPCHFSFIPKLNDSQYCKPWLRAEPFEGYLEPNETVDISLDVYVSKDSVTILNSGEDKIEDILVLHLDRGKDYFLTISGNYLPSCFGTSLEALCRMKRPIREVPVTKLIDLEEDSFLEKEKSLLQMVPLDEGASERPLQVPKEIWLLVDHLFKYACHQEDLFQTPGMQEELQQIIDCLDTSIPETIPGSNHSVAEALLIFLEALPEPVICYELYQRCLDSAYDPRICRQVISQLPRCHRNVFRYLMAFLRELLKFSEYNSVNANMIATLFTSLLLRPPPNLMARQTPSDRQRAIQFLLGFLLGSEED
UniProt Q9UHY1: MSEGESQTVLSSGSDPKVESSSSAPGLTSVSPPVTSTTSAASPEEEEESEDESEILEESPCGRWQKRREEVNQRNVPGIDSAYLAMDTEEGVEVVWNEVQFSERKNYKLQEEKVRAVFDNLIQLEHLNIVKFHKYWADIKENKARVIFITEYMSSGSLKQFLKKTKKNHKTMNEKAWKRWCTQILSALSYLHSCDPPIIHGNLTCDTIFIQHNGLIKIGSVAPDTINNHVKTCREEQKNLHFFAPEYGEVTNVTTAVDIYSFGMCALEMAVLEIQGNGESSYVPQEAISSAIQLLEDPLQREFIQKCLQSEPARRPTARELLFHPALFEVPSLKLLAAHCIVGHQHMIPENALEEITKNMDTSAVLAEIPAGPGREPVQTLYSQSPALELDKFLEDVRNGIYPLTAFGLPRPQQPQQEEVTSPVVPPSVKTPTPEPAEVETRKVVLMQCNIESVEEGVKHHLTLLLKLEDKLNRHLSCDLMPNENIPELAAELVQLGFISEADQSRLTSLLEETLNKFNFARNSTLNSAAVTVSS
UniProt P04181: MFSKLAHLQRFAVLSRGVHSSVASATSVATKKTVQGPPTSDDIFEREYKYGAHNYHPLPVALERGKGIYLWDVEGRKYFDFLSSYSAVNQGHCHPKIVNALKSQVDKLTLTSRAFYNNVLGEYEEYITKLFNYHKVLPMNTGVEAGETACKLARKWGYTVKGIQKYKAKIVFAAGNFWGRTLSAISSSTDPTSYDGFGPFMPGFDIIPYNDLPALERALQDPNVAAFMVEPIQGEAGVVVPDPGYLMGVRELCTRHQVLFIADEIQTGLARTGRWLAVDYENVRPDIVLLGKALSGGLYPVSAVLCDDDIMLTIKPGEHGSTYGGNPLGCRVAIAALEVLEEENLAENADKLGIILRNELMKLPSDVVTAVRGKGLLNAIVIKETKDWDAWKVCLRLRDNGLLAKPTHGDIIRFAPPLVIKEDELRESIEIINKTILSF
UniProt Q96E22: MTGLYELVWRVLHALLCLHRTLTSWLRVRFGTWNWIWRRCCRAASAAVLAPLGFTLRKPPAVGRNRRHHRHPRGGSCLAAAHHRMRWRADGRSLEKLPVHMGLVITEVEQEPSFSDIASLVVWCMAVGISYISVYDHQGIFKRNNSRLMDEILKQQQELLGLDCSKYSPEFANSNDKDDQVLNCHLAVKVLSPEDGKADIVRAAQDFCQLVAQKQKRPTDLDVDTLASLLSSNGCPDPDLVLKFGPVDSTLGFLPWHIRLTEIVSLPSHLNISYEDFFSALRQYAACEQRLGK

These targets were tested with ClCC(=O)N[C@@H]1CCCc2ccccc12 (assay: log2 mean competition ratio of IA-DTB cysteine labelling (DMSO/compound) (log2 ratio); higher = stronger cysteine engagement by compound). Conditions: 50 µM; treatment time: 4 h; cell line lysate: HEK293T.
Protocol: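 IA-DTB competitive cysteine chemoproteomics in HEK293T RIPA lysate. Lysates were treated with compound 29 or 30 at 50 or 200 µM for 4 h, then IA-DTB (500 µM, 1 h), trypsin-digested, NeutrAvidin-enriched and analysed by diaPASEF. Competition ratio = intensity DMSO / intensity compound (n=4 treated, n=64 DMSO); binding: mean log2 CR ≥ 1 and p ≤ 0.05 plus QC filters. Target is the cysteine site.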

Target | log2 mean competition ratio
NSUN2 C502 (UniProt Q08J23) | -0.153
ORC3 C639 (UniProt Q9UBD5) | -0.0799
NSD1 C2508 (UniProt Q96L73) | -0.131
NSUN2 C758 (UniProt Q08J23) | -0.656
NRDC C1027 (UniProt O43847) | 0.0909
OGA C878 (UniProt O60502) | 0.0597
NUDT9 C347 (UniProt Q9BW91) | -0.237
OARD1 C122 (UniProt Q9Y530) | -0.122
NUP93 C422 (UniProt Q8N1F7) | 0.136
OCRL C611 (UniProt Q01968) | 0.243
NRBP1 C307 (UniProt Q9UHY1) | -0.222
NOVA2 C21 | 0.00979
OAT C150 (UniProt P04181) | -0.025
ORC4 C16 (UniProt O43929) | 0.187
OGA C596 (UniProt O60502) | -0.0654
NUBP2 C54 (UniProt Q9Y5Y2) | -0.219
NSUN2 C184 (UniProt Q08J23) | -0.127
NUS1 C164 (UniProt Q96E22) | -0.378
NUP93 C392 (UniProt Q8N1F7) | -0.0121
NT5DC1 C197 (UniProt Q5TFE4) | -0.108

Same assay, conditions: 200 µM; treatment time: 4 h; cell line lysate: HEK293T

Target | log2 mean competition ratio
NSUN2 C502 (UniProt Q08J23) | 0.164
ORC3 C639 (UniProt Q9UBD5) | -0.0462
NSD1 C2508 (UniProt Q96L73) | 0.00924
NSUN2 C758 (UniProt Q08J23) | -0.109
NRDC C1027 (UniProt O43847) | -0.302
OGA C878 (UniProt O60502) | -0.0479
NUDT9 C347 (UniProt Q9BW91) | 0.151
OARD1 C122 (UniProt Q9Y530) | 0.2
NUP93 C422 (UniProt Q8N1F7) | -0.0645
OCRL C611 (UniProt Q01968) | 0.242
NRBP1 C307 (UniProt Q9UHY1) | -0.406
NOVA2 C21 | 0.0575
OAT C150 (UniProt P04181) | 0.0767
ORC4 C16 (UniProt O43929) | 0.207
OGA C596 (UniProt O60502) | 0.000193
NUBP2 C54 (UniProt Q9Y5Y2) | 0.229
NSUN2 C184 (UniProt Q08J23) | 0.113
NUS1 C164 (UniProt Q96E22) | 0.37
NUP93 C392 (UniProt Q8N1F7) | -0.16
NT5DC1 C197 (UniProt Q5TFE4) | -0.666
